Source: publication PMC3991615, “The N-Terminal Domain of the Repressor of Staphylococcus aureus Phage Φ11 Possesses an Unusual Dimerization Ability and DNA Binding Affinity”
pKd: −log10 of the molar value. For at least one entry, the source does not settle the construct or the ends of the probe. Protein sequences can lack the tags named with them.

Columns and labels:
[1] = molecular target: T1, rCI (phage phi11 CI lysogenic repressor) (Staphylococcus aureus phage phi11) (UniProt Q8SDX2); assay: EMSA; settings: 42°C, Kd stated as very similar to that of rNTD; EMSA with ~0.1 nM 32P-DNA, 20 min on ice (0°C) unless 42°C; RNAP assay and protein storage in buffer C (10 mM Tris-HCl pH 8.0, 200 mM NaCl, 1 mM EDTA, 5% glycerol); recombinant protein; protein details: C-terminal His tag; label: 32P
T1 sequence (looked up, limits assumed): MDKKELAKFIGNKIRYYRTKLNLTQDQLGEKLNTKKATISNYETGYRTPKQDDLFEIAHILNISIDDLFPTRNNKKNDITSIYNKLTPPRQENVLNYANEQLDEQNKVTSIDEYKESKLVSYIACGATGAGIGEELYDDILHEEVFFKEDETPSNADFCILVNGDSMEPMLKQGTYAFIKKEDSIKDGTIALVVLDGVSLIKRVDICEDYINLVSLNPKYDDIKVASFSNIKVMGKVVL

[2] = molecular target: T2, rNTD (N-terminal domain of phage phi11 CI repressor) (Staphylococcus aureus phage phi11) (UniProt Q8SDX2); assay: EMSA; settings: 42°C; EMSA with ~0.1 nM 32P-DNA, 20 min on ice (0°C) unless 42°C; RNAP assay and protein storage in buffer C (10 mM Tris-HCl pH 8.0, 200 mM NaCl, 1 mM EDTA, 5% glycerol); recombinant protein; protein details: C-terminal His6 (8 additional residues); label: 32P
T2 sequence (looked up, limits assumed): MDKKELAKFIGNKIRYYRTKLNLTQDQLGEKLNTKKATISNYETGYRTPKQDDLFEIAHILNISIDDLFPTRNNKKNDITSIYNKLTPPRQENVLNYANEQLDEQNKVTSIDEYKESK

GACTCAAGTACACGTATCGTGTATAGTAGGTTTA / AAACCTACTATACACGATACGTGTACTTGAGTCA [O1]
pKd [1]: 6.52 | pKd [2]: 6.52
